Data set [1] can be described thus: Capstock: initial color (YI) of laminated polycarbonate film with 7% additive. The following applies: 7% in Capstock PC-Lexan 105.
A short description of data set [2]: Hydrolytic testing of polycarbonate plaques (water, 120° C., 6 hours). Conditions: 0.35% in Lexan 121 PC; water at 120° C. for 6 hours; YI before and after.

The results in this text go back to patent US6537670B1, “Bis(alkyleneoxybenzophenone) ultraviolet light absorbers” (Cytec Technology Corp., priority 2000, dated 2003).

For `O=C(OCCOc1ccc(C(=O)c2ccccc2)c(O)c1)OCCOc1ccc(C(=O)c2ccccc2)c(O)c1` [Compound D, {2-(3′-hydroxy-4′-benzoylphenoxy)ethyl}carbonate], in data set [1], the “YI Value (initial color)” value is reported as 7.7. The “Delta VI Value (hydrolytic testing)” value in data set [2] worked out at 0.56.
For `O=C(c1ccccc1)c1ccc(OCCCCCCOc2ccc(C(=O)c3ccccc3)c(O)c2)cc1O` [Compound E, 1,6-bis(3′hydroxy-4′-benzoylphenoxy)hexane], the “Delta VI Value (hydrolytic testing)” value in data set [2] is recorded as 0.93.
Consider `CC(C)(C)CC(C)(C)c1cc(Cc2cc(C(C)(C)CC(C)(C)C)cc(-n3nc4ccccc4n3)c2O)c(O)c(-n2nc3ccccc3n2)c1` [Compound F], for which the “YI Value (initial color)” value in data set [1] amounted to 8.6. In addition, in data set [2], the “Delta VI Value (hydrolytic testing)” value was 1.26.
With `CC(C)(C)CC(C)(C)c1ccc(O)c(-n2nc3ccccc3n2)c1` [Compound A, 2-(2′-hydroxy-5′-(1,1,3,3-tetramethylbutyl)phenyl)benzotriazole], the “YI Value (initial color)” value in data set [1] came to 6.7.
Consider `CC(C)(c1ccccc1)c1cc(-n2nc3ccccc3n2)c(O)c(C(C)(C)c2ccccc2)c1` [Compound C, 2-(3′,5′-bis(α,α-dimethylbenzyl)-2′hydroxyphenyl)benzotriazole], for which, in data set [1], the “YI Value (initial color)” value was found to be 7.1. In data set [2], the “Delta VI Value (hydrolytic testing)” value was determined as 0.36.
